Test results published in patent US20170320950A1.
These are yes or no findings as the source states them, for the method shown. Some binding calls cover weakened binding; strength is not graded here.

T1: human VISTA on the surface of cells (human) (UniProt Q9H7M9)
T1 sequence: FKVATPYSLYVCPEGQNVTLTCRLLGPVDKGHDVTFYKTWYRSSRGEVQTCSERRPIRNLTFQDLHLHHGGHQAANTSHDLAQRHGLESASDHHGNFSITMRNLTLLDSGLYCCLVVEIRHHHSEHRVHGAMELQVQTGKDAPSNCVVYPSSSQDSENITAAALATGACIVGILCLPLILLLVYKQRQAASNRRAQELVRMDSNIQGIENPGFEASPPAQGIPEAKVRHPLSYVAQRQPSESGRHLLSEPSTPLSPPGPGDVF

T2: human VISTA protein, deglycosylated with PNGase F (human) (UniProt Q9H7M9)
T2 sequence (chain, deglycosylated with PNGase F (six N-linked glycosylation sites)): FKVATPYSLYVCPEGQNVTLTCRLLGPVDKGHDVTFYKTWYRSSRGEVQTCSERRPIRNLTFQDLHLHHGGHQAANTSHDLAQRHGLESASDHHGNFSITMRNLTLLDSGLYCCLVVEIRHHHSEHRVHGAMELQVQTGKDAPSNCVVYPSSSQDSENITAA


How the values were obtained:
[1] = target: cynomolgus VISTA on the surface of K562 cells (cynomolgus); assay: FACS K562
[2] = target: T1, human VISTA on the surface of cells (human); assay: FACS K562
[3] = target: T1, human VISTA on the surface of cells (human); assay: flow cytometry on K562-G8 cells expressing human VISTA, antibody at 5 ug/ml, goat anti-human IgG1-PE, axis h-IgG-FC-PE Intensity
[4] = target: T2, human VISTA protein, deglycosylated with PNGase F (human); assay: HDX-MS with Fab

| Binder | binding [1] | binding [2] | binding [3] | binding [4] |
| --- | --- | --- | --- | --- |
| VSTB50 (antibody, human IgG1, kappa, V domains shown) VH: QVQLVQSGSELKKPGASVKVSCKASGYTFTNYGLNWVRQAPGQGLEWMGWINPYTGEPTYADDFKGRFVFSLDTSVSTAYLQICSLKAEDTAVYYCAREGYGNYIFPYWGQGTLVTVSS VL: DIVMTQTPLSLSVTPGQPASISCRASESVDTYANSLMHWYLQKPGQPPQLLIYRASNLESGVPDRFSGSGSGTDFTLKISRVEAEDVGVYYCQQTNEDPRTFGQGTKLEIKR | binds | binds | binds |  |
| VSTB53 (antibody, human IgG1, kappa, V domains shown) VH: QVQLVQSGAEVKKPGASVKVSCKASGYTFTHYTIHWVRQAPGQGLEWMGYIIPSSGYSEYNQKFKDRVTMTRDTSTSTVYMELSSLRSEDTAVYYCARGAYDDYYDYYAMDYWGQGTLVTVSS VL: DIVMTQSPLSLPVTPGEPASISCRSSQTIVHSNGNTYLEWYLQKPGQSPQLLIYKVSNRFSGVPDRFSGSGSGTDFTLKISRVEAEDVGVYYCFQASHVPWTFGQGTKLEIKR | binds | binds | binds |  |
| VSTB95 (antibody, human IgG1, kappa, V domains shown) VH: EVQLVESGGGLVQPGGSLRLSCAASGFTFRNYGMSWVRQAPGKGLEWVASIISGGSYTYYPDSVKGRFTISRDNAKNSLYLQMNSLRAEDTAVYYCARIYDHDGDYYAMDYWGQGTTVTVSS VL: DIVMTQSPLSLPVTPGEPASISCRSSQSIVHSNGNTYLEWYLQKPGQSPQLLIYKVSNRFSGVPDRFSGSGSGTDFTLKISRVEAEDVGVYYCFQGSHVPWTFGQGTKLEIKR | binds | binds | binds |  |
| VSTB60 (antibody, human IgG1, kappa, V domains shown) VH: QVQLVQSGSELKKPGASVKVSCKASGYTFTNYGMTWVRQAPGQGLEWMGWINTYTGESTYADDFKGRFVFSLDTSVSTAYLQICSLKAEDTAVYYCARDYYGIYVSAYWGQGTLVTVSS VL: DIVMTQTPLSLSVTPGQPASISCRASESVDNYANSFMHWYLQKPGQSPQLLIYRASNLESGVPDRFSGSGSGTDFTLKISRVEAEDVGVYYCQQSHEDPYTFGQGTKLEIKR | binds | binds | binds |  |
| Fab of VSTB50 (Fab, V domains shown) VH: QVQLVQSGSELKKPGASVKVSCKASGYTFTNYGLNWVRQAPGQGLEWMGWINPYTGEPTYADDFKGRFVFSLDTSVSTAYLQICSLKAEDTAVYYCAREGYGNYIFPYWGQGTLVTVSS VL: DIVMTQTPLSLSVTPGQPASISCRASESVDTYANSLMHWYLQKPGQPPQLLIYRASNLESGVPDRFSGSGSGTDFTLKISRVEAEDVGVYYCQQTNEDPRTFGQGTKLEIKR |  |  |  | binds |
| Fab of VSTB95 (Fab, V domains shown) VH: EVQLVESGGGLVQPGGSLRLSCAASGFTFRNYGMSWVRQAPGKGLEWVASIISGGSYTYYPDSVKGRFTISRDNAKNSLYLQMNSLRAEDTAVYYCARIYDHDGDYYAMDYWGQGTTVTVSS VL: DIVMTQSPLSLPVTPGEPASISCRSSQSIVHSNGNTYLEWYLQKPGQSPQLLIYKVSNRFSGVPDRFSGSGSGTDFTLKISRVEAEDVGVYYCFQGSHVPWTFGQGTKLEIKR |  |  |  | binds |
